Laboratory results reported in article PMC4912626.
Results are given in words; binding and its absence hold for the method and conditions named. For some of these results: Binding seen in cells or lysates may run through a third protein. Some binding calls cover weakened binding; strength is not graded here. For some of these results: Where a sequence is shown, tags or fusion partners need not be part of it.

Amino acid sequences for entries named in this document (tags omitted).
UniProt P01106: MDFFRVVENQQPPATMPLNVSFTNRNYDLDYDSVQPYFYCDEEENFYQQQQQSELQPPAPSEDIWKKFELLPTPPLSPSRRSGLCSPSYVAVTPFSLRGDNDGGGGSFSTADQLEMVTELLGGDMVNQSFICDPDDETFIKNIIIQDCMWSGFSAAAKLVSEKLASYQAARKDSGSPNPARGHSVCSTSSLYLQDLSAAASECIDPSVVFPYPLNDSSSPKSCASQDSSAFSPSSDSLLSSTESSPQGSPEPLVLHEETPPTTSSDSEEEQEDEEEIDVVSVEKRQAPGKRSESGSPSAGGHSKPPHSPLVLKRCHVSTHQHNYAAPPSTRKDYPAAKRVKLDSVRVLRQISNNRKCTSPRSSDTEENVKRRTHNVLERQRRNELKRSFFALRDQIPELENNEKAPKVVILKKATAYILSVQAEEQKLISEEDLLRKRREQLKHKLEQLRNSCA
UniProt P01108: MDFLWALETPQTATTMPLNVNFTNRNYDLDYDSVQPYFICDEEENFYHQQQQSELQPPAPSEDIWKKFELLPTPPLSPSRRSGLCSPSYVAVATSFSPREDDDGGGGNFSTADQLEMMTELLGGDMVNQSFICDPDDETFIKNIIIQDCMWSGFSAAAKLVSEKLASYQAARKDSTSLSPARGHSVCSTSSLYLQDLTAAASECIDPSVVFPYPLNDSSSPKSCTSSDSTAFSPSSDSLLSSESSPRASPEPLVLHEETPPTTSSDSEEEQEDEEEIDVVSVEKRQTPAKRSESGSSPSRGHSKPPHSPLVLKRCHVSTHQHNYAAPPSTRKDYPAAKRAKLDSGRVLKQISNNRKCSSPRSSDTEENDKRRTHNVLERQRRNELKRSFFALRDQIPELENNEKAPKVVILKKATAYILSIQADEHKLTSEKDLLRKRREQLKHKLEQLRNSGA
UniProt Q00417: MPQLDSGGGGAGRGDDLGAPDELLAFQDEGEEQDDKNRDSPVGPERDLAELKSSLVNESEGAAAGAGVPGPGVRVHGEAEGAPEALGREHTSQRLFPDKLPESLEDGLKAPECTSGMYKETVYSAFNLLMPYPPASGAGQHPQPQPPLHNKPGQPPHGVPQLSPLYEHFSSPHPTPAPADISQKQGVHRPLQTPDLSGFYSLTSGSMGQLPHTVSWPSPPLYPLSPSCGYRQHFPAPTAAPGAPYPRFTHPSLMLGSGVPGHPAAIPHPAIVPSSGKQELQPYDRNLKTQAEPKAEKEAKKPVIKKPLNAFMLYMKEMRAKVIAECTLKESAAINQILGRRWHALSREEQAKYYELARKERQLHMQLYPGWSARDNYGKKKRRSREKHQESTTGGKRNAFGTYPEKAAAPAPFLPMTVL
UniProt Q6ZN18: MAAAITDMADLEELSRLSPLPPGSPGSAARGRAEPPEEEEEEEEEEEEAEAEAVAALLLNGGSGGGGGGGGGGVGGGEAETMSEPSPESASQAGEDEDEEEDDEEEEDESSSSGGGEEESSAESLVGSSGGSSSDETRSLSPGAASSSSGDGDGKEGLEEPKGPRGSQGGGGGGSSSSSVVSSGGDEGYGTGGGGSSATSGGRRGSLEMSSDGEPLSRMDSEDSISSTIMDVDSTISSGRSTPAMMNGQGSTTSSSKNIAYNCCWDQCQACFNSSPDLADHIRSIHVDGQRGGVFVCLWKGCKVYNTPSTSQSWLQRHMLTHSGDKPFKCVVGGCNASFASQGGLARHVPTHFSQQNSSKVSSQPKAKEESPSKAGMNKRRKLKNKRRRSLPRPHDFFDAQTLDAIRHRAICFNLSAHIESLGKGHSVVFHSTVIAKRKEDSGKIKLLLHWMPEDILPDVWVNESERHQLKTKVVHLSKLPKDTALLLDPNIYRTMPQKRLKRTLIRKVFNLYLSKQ
UniProt Q921E6: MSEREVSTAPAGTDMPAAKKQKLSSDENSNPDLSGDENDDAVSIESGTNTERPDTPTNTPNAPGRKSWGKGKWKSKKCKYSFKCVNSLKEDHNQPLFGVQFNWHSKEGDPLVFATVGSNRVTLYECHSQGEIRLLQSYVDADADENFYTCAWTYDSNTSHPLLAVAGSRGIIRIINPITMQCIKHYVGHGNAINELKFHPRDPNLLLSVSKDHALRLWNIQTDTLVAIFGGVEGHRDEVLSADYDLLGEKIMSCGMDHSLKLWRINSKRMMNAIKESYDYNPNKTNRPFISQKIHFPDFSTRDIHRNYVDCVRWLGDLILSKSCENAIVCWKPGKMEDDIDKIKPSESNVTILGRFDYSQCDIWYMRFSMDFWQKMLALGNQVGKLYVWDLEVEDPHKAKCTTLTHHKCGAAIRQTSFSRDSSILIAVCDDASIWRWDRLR
UniProt Q61188: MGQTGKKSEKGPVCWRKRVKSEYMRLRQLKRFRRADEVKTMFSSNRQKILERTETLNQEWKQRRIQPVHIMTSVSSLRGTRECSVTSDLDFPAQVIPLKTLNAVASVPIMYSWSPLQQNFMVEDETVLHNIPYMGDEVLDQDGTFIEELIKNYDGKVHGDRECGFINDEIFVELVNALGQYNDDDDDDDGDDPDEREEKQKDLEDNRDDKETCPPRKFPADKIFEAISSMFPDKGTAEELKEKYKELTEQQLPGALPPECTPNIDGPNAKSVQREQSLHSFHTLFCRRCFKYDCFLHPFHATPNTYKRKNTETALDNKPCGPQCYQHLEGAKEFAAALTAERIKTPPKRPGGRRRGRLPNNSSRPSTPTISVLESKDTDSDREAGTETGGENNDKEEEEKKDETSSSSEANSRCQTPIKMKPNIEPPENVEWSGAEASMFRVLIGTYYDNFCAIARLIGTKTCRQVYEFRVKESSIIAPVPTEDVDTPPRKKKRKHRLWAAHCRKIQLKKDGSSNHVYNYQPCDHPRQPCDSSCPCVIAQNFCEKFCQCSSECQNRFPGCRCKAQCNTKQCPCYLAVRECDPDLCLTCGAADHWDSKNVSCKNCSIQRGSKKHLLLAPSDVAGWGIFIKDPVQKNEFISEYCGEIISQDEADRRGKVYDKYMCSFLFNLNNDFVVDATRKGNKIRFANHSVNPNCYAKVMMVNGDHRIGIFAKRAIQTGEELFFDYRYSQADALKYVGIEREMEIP
UniProt Q9CQJ4: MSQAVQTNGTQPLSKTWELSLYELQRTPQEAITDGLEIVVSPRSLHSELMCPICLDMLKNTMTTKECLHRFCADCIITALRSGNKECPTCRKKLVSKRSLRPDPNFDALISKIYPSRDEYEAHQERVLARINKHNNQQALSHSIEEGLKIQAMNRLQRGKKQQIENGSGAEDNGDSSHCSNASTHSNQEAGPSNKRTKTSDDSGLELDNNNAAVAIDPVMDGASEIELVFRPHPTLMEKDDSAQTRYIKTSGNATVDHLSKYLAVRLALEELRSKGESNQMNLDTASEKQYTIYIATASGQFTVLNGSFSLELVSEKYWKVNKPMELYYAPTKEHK
UniProt Q80U70: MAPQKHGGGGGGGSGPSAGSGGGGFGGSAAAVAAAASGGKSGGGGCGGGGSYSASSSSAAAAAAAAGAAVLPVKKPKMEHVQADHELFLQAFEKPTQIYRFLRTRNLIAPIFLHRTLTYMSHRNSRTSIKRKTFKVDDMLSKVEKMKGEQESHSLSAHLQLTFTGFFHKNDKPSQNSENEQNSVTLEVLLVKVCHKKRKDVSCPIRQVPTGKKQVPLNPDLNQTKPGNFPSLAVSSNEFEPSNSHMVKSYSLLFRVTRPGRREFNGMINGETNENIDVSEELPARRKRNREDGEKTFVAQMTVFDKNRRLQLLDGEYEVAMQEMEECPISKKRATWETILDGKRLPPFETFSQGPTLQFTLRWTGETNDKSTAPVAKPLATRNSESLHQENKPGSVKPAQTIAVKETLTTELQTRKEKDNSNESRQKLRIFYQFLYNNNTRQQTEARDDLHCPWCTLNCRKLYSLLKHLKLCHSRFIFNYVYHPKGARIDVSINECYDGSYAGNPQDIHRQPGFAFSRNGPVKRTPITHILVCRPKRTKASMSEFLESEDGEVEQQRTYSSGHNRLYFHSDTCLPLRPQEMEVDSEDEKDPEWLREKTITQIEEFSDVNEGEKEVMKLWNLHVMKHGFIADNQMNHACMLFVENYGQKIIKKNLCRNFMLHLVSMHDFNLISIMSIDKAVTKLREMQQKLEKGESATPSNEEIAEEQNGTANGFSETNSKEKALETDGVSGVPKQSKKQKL
UniProt Q02248: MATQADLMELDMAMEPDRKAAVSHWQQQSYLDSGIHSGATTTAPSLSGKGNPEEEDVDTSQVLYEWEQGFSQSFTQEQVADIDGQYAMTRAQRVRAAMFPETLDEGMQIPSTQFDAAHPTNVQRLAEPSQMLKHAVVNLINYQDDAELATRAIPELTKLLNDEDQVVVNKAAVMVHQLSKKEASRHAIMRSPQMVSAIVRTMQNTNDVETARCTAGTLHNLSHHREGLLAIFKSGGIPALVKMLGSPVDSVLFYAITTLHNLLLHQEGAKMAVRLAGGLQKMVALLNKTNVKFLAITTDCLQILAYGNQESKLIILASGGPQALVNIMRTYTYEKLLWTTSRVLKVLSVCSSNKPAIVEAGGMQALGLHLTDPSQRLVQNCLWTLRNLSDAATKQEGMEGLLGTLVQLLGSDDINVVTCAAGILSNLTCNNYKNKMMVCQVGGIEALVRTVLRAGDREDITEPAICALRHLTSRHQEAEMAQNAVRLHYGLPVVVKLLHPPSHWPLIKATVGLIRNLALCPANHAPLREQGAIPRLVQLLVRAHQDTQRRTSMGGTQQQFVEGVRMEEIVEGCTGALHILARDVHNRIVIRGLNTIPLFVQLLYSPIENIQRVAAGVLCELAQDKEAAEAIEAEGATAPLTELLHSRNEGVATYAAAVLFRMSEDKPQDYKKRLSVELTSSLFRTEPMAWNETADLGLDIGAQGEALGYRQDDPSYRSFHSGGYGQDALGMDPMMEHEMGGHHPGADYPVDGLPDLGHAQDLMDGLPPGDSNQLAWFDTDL

How the values were obtained:
[1] = biological target: YFP-MYC (UniProt P01106); assay: FRET or BRET; acceptor photobleaching FRET (apFRET) in fixed NIH3T3 cells co-expressing CFP- and YFP-tagged proteins, MAX co-expressed (MYC:MAX 4:1)
[2] = biological target: endogenous Myc (mouse (endogenous in ESCs)) (UniProt P01108); assay: co-IP; nuclear extracts of ESCs in F-buffer (100 mM NaCl, 1% Triton X-100), in the presence or absence of DNaseI; IP of endogenous Myc, immunoblot
[3] = biological target: T1, endogenous Mycn (mouse (endogenous in ESCs)) (UniProt P03966); assay: proximity ligation; in situ PLA (Olink) on ESCs fixed in 4% PFA, primary antibodies from different species; LIF- and Myc-dependent ESCs; shRNA knock-downs as specificity controls
T1 sequence: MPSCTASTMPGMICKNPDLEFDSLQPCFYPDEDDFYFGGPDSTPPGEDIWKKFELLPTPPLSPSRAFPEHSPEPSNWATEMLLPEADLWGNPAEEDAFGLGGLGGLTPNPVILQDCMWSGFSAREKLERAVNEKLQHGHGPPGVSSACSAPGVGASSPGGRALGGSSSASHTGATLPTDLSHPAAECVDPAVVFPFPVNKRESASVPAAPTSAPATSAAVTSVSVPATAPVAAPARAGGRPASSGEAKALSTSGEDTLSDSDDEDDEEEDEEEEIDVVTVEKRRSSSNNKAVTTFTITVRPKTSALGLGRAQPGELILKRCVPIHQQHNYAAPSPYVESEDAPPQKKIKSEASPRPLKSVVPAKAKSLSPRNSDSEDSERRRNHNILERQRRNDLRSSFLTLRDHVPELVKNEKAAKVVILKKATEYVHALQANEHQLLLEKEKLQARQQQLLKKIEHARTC

[4] = biological target: endogenous Myc (mouse (endogenous in ESCs)) (UniProt P01108); assay: as above
[5] = biological target: His-Myc wt (UniProt P01106); assay: pull-down; 1 μg His-MYC bound to magnetic beads with anti-Histidine antibody, 1 μg GST fusion protein, GST-binding buffer (40 mM HEPES pH 7.3, 200 mM KCl, 0.1% NP-40, 0.2% Tween-20), 2 h at 4 °C, immunoblot; both purified
[6] = biological target: Tcf1 (mouse (endogenous in ESCs)) (UniProt Q00417); assay: proximity ligation; in situ PLA (Olink) on ESCs fixed in 4% PFA, primary antibodies from different species; LIF- and Myc-dependent ESCs; shRNA knock-downs as specificity controls
[7] = biological target: T2, Tcf3 (mouse (endogenous in ESCs)) (UniProt Q9Z1J1); assay: as above
T2 sequence: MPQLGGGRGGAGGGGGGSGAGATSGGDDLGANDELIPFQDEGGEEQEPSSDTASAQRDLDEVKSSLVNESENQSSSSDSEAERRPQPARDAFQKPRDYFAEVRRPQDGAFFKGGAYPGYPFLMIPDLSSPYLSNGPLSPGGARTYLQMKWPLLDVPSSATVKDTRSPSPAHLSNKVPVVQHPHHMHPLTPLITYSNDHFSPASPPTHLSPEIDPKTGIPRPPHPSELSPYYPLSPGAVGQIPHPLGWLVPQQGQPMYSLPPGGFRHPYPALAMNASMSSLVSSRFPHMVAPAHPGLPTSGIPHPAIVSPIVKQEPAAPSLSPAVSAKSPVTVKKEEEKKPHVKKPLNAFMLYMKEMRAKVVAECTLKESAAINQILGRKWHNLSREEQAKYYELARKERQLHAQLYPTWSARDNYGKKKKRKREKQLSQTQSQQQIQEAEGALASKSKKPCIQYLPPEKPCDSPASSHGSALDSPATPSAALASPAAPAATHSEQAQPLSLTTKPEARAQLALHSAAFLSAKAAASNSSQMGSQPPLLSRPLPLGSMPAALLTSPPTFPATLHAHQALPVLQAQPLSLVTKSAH

In the case of AEBP2-CFP (from UniProt Q6ZN18 1-517), the binding [1] is reported as “binds”.

In the case of Eed (from UniProt Q921E6 1-441), the binding [2] is reported as “binds”, the binding [3] is reported as “binds” and the binding [4] is reported as “binds”.

With Ezh2 (from UniProt Q61188 1-746) the binding [2] was “binds”, the binding [3] was “binds” and the binding [4] was “binds”.

For GST-AEBP2 (from UniProt Q6ZN18 1-517), the binding [5] was “binds”.

With Ring1B (from UniProt Q9CQJ4 1-336) the binding [2] was “no binding”.

For Suz12 (from UniProt Q80U70 1-741), the binding [2] was “binds”.

For β-catenin (from UniProt Q02248 1-781), the binding [6] was “binds” and the binding [7] was “binds”.

B1: Aebp2 (protein, UniProt Q9Z248 1-504)
chain: MAAALADMADLEELSRLSPLSPGSPGPAARGRAEPPEEEEEEDDEEAEAEAVAALLLNGGAGGGAGGGEAETMSEPSPESASQAGGDEDEDEEDDEDEGSSSGGAEEESSAESLVGSSSGGCSGDETRSLSPGAASSSSGDGDGKEGLEEPKGPRGGPGGPGSSGGGSSSSSVVSSGGDEGYGTGGGGSSATSGGRRGSLEMSSDGEPLSRMDSEDSISSTLMDIDSTISSGRSTPAMMNGQGSTTASSKHIAYNCCWDQCQACFNSSPDLADHIRSIHVDGQRGGVFVCLWKGCKVYNTPSTSQSWLQRHMLTHSGDKPFKCVVGGCNASFASQGGLARHVPTHFSQQNSSKVSSQPKAKEESPSKAGMNKRRKLKNKRRRSLPRPHDFFDAQTLDAIRHRAICFNLSAHIESLGKGHSVVFHSTVIAKRKEESGKIKLLLHWMPEDILPDVWVNESERHQLKTKVVHLSKLPKDTALLLDPNIYRTMPQKRLKRFDILNFPR
With B1 the binding [2] was “binds”.
